# According to article PMC3937361:
# Results are given in words; binding and its absence hold for the method and conditions named. Binding can be weak; no strength is given. For some of these results: Binding seen in cells or lysates may run through a third protein.
# Biological target: T1, OmpA encoded by plasmid pOmpA (S. flexneri)
# T1 sequence: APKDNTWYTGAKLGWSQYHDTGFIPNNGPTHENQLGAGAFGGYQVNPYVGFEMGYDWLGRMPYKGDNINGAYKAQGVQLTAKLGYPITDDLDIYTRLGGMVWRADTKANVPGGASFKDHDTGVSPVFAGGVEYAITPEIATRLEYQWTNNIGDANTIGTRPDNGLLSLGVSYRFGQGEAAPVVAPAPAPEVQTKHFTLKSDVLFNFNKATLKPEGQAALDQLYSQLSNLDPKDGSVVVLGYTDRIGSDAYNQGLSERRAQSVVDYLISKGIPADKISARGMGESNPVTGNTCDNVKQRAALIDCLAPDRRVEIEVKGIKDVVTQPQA
# Assay: cross-linking; in vivo, 1% formaldehyde for 15 min at room temperature on S. flexneri HND115 or HND93 carrying the plasmids, PBS pH 6.8; samples heated at 37°C (cross-links kept) or 95°C (broken); blots with anti-HA and anti-OmpA
row,Substance,binding
1,PhoN2-HA encoded by pHND10 (S. flexneri),binds

# Biological target: T2, outer membrane protein A (OmpA), endogenous in S. flexneri HND115 (S. flexneri (endogenous in HND115))
# T2 sequence: T1 sequence
# Assay: as above
row,Substance,binding
1,PhoN2-HA with the second proline of the 43PPPP46 motif changed to serine (pHND14_(PSPP)) (S. flexneri),binds
2,PhoN2-HA with the first proline of the 43PPPP46 motif changed to serine (pHND23_(SPPP)) (S. flexneri),binds

# Biological target: PhoN2 (apyrase) bait encoded by pGBKT7/phoN2 (S. flexneri) (UniProt Q6XW11)
# Assay: two-hybrid; yeast (S. cerevisiae AH109); bait pGBKT7/phoN2, prey cDNA library of S. flexneri M90T in pGADT7-Rec; selection on SD medium lacking leucine, tryptophan, histidine and adenine, 30°C, α-galactosidase assay
row,Substance,binding
1,OmpA prey fragment 185-304 (from UniProt A0A2S4N3N0) (domain or fragment),binds
2,OmpA prey fragment 72-277 (from UniProt A0A2S4N3N0) (domain or fragment),binds
3,OmpA prey fragment 188-299 (from UniProt A0A2S4N3N0) (domain or fragment),binds
4,OmpA prey fragment 43-275 (from UniProt A0A2S4N3N0) (domain or fragment),binds
5,OmpA prey fragment 51-273 (from UniProt A0A2S4N3N0) (domain or fragment),binds
6,OmpA prey fragment 186-284 (from UniProt A0A2S4N3N0) (domain or fragment),binds
7,OmpA prey fragment 189-276 (from UniProt A0A2S4N3N0) (domain or fragment),binds
